Data as given in patent US20240148682A1, “METHOD FOR REGULATING DOWNSTREAM SIGNALING PATHWAY MEDIATED BY ACTIVATION OF TRIMETHYLAMINE-N-OXIDE” (China Medical University, priority 2022, published 2024).
For at least one compound, name, drawing or mass did not settle the structure.

What was measured:
[1] = test system: human endothelial progenitor cells; assay: Neovasculogenesis index of hEPCs on Matrigel (Calcein-AM); format: cell-based; conditions: SCF 20 ng/mL, trimethylamine-N-oxide 300 μM, DHA 25, 50, 125 μM (embodiments 7 to 9), 8 hours, compared with comparison group 3
Description: (§1) To analyze the effects of the omega-3 polyunsaturated fatty acids in alleviating the impairment of neovascularization induced by the activation of the trimethylamine-N-oxide, human endothelial progenitor cells are cultured in the MCDB-131 medium containing the EGM™-2 growth kit and the 10% fetal bovine serum in a Matrigel-coated 96-well plate. Then, the human endothelial progenitor cells are administered separately with reagent formulations of the control group 2, the comparison groups 2 to 3, and the embodiments 7 to 9 shown in Table 2, and incubated in an incubator at 37° C. for 8 hours.
After the culture time of 8 hours has elapsed, the human endothelial progenitor cells are fixed in glutaraldehyde/paraformaldehyde solution and treated with Calcein-AM solution so as to detect the fluorescent signals of different groups. The proteins of the human endothelial progenitor cells are extracted and analyzed by the Western blot analysis to confirm the expressions of factors related to the Akt/eNOS signaling pathway, the MAPK/ERK signaling pathway and the expression of gamma-glutamylcysteine synthetase (“γ-GCS” hereafter), wherein the γ-GCS participates in the synthesis of GSH. The GSH/GSSG ratios in the human endothelial progenitor cells are analyzed by using the liquid chromatography, the electrospray ionization, and the mass spectrometry. Each experiment is repeated 3 times.

γ-GCS = assay: Western blot of γ-GCS in hEPCs; format: cell-based, human; conditions: SCF 20 ng/mL, trimethylamine-N-oxide 300 μM, DHA 25-125 μM (embodiments 7 to 9), 8 hours
[2] = test system: NF-κB signaling pathway and MAPK/p38 and JNK signaling pathway; assay: Western blot of factors of the NF-κB and MAPK/p38 and JNK signaling pathways in TMAO-treated hEPCs; format: cell-based, human; conditions: trimethylamine-N-oxide 300 μM, DHA or EPA 25, 50, 125 μM, 24 hours, compared with comparison group 1
[3] = test system: Akt/eNOS signaling pathway and MAPK/ERK signaling pathway; assay: Western blot of factors of the Akt/eNOS and MAPK/ERK signaling pathways in SCF-treated hEPCs; format: cell-based, human; conditions: SCF 20 ng/mL, trimethylamine-N-oxide 300 μM, DHA 25-125 μM (embodiments 7 to 9), 8 hours, vs comparison group 3
Description: as §1
(§2) After the culture time of 8 hours has elapsed, the human endothelial progenitor cells are fixed in glutaraldehyde/paraformaldehyde solution and treated with Calcein-AM solution so as to detect the fluorescent signals of different groups. The proteins of the human endothelial progenitor cells are extracted and analyzed by the Western blot analysis to confirm the expressions of factors related to the Akt/eNOS signaling pathway, the MAPK/ERK signaling pathway and the expression of gamma-glutamylcysteine synthetase (“γ-GCS” hereafter), wherein the γ-GCS participates in the synthesis of GSH. The GSH/GSSG ratios in the human endothelial progenitor cells are analyzed by using the liquid chromatography, the electrospray ionization, and the mass spectrometry. Each experiment is repeated 3 times. […]

[4] = test system: human endothelial progenitor cells; assay: GSH/GSSG ratio in hEPCs by liquid chromatography, electrospray ionization, mass spectrometry; format: cell-based; conditions: SCF 20 ng/mL, trimethylamine-N-oxide 300 μM, DHA 25, 50, 125 μM (embodiments 7 to 9), 8 hours, compared with comparison group 3
Description: as §1, §2

miR-221 = assay: Quantitative PCR of miR-221 expression in hEPCs; format: cell-based, human; conditions: trimethylamine-N-oxide 300 μM, DHA or EPA 25-125 μM (embodiments 1 to 6), 24 hours, vs comparison group 1, p<0.05
Description: To analyze the effects of the omega-3 polyunsaturated fatty in inhibiting the inflammatory responses induced by the activation of the trimethylamine-N-oxide, human endothelial progenitor cells are cultured in the MCDB-131 medium supplemented with the 10% fetal bovine serum and the EGM™-2 growth kit and are administered separately with reagent formulations of the control group 1, the comparison group 1, and the embodiments 1 to 6 shown in Table 1. After the culture time of 24 hours has elapsed, the expressions of cytokines related to the inflammatory responses in the human endothelial progenitor cells are analyzed by enzyme-linked immunosorbent assay (ELISA) and quantitative PCR (qPCR) so as to evaluate the effects of the omega-3 polyunsaturated fatty acids in inhibiting the inflammatory responses mediated by the activation of the trimethylamine-N-oxide. Each experiment is repeated 3 times.
In detail, according to the previous studies, miRNA-221 (“miR-221” hereafter) plays an essential role in the physiological metabolism of the human endothelial progenitor cells. […]
Furthermore, the operation details of the quantitative PCR and the enzyme-linked immunosorbent assay are well-known in the art and can be adjusted according to the experimental requirements, so the detailed steps thereof will not be described herein again.

IL-6 = assay: ELISA of IL-6 expression in TMAO-treated hEPCs; format: cell-based, human; conditions: trimethylamine-N-oxide 300 μM, DHA or EPA 25-125 μM (embodiments 1 to 6), 24 hours, vs comparison group 1, p<0.05
[5] = test system: human umbilical vein endothelial cells (HUVECs); assay: Western blot of factors related to vascular fibrogenesis in TMAO-treated HUVECs; format: cell-based; conditions: trimethylamine-N-oxide 50 μM, DHA or EPA 25, 50, 125 μM (embodiments 10 to 15), 24 hours, compared with comparison group 4

| SMILES | neovasculogenesis index [1] | expression of γ-GCS (γ-GCS) | expressions of p-IκB-α, p-p38, p-JNK, p-p65, c-fos, and p-c-Jun [2] | expressions of p-Akt, p-eNOS, and p-ERK1/2 [3] | GSH/GSSG ratio [4] | expression of miR-221 (miR-221) | expression of IL-6 (IL-6) | expressions of Fibronectin-EDA, COL-4, COL-1, and α-SMA [5] |
| --- | --- | --- | --- | --- | --- | --- | --- | --- |
| CC/C=C\C/C=C\C/C=C\C/C=C\C/C=C\C/C=C\CCC(=O)O [DHA, docosahexaenoic acid] | increase along with the increase of the concentrations of DHA | effectively promote | decrease along with the increase of the concentrations | higher | increases along with the increase of the concentrations of DHA | significantly lower | significantly lower | decrease along with the increase of the concentrations |
| CC/C=C\C/C=C\C/C=C\C/C=C\C/C=C\CCCC(=O)O [EPA, eicosapentaenoic acid] |  |  | decrease along with the increase of the concentrations |  |  | significantly lower | significantly lower | decrease along with the increase of the concentrations |
